# Test results published in PubChem BioAssay AID624297 (National Center for Advancing Translational Sciences (NCATS), 2012).
# The whole screen tested about 340,000 compounds, of which about 6,200 (1.8%) were called active. This list was built around the results that the source calls inconclusive (neither active nor inactive); the mix of calls is not that of the screen. The call rests on the fitted dose curve; in most records, active means well fitted activation curve with a large enough effect; inconclusive means small, poorly fitted or top-dose-only effect; inactive means no such curve, though single readings can be large or run the other way. Potencies of inconclusive entries are doubtful fits and often do not repeat.
# Assay: A quantitative high throughput screen for small molecules that induce DNA re-replication in SW480 colon adenocarcinoma cells. Further: nearly all actives have a fitted effect of over 55% in size. On re-replication activation: % of control where 0% means no effect.
# Conditions: Hoechst DNA content imaging, 48 h; re-replication activation: at 46.1 µM (top of the series) unless noted
# In short: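 DNA re-replication was detected as more nuclei of elevated Hoechst intensity after 48 hr exposure to compound (23 nL pinned per well of 250 cells).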
# Potency means the concentration at half of the fitted maximal effect.
SMILES,re-replication activation,Potency
CCOC(=O)N1CCN(S(=O)(=O)c2ccc(C)cc2)CC1,inactive: -3.58%,–
CCN(CC)S(=O)(=O)c1cc(NC(=O)Cc2n[nH]c(=O)c3ccccc23)ccc1C,inactive: 1.83%,–
C[C@]12CCC3C(CC[C@H]4CC(O)CC[C@]34C)C1CC/C2=N/NC(=O)c1ccncc1 (some centres undefined),inactive: 12%,–
CCOc1ccc(/C=N/NC(=O)Cc2ccccc2)cc1CN1CC2CC(C1)c1cccc(=O)n1C2 (centres undefined),–,"inconclusive: 3.26 µM [activator, single point]"
CCN(CC)c1ccc(C(=O)OCC(=O)Nc2cc3oc4ccccc4c3cc2OC)cc1,–,"inconclusive: 23.1 µM [activator, single point]"
COc1cc(N)c(Cc2nccc3cc(OC)c(OC)cc23)cc1OC,inactive: 7.07%,–
C1=CCN(Cc2ccccc2)C1,–,"inconclusive: 0.13 µM [activator, single point]"
Cc1ccc(C)c(NC(=O)CSc2nnc(C)c(=O)n2N)c1,–,"inconclusive: 2.91 µM [activator, partial curve, poor fit]"
O=C(COc1ccccc1-c1ccccc1)N/N=C/c1ccc2ccccc2c1,–,active: 1.3 µM
CCC(C)Oc1nc2c(c(=O)n(C)c(=O)n2C)n1C (centres undefined),inactive: -6.44%,–
O=C(O)CCC1(C(=O)O)OCCc2ccccc21 (centres undefined),–,"inconclusive: 0.058 µM [activator, full curve, poor fit]"
Cc1nc(-c2c(C(F)(F)F)noc2-c2ccc(O)cc2O)cs1,–,"inconclusive: 32.6 µM [activator, partial curve, poor fit]"
COc1cccc2c(=O)c(C(=O)O)c[nH]c12,–,"inconclusive: 29.1 µM [activator, single point]"
Cc1ccccc1-c1nc(C(=O)NCC2CCCO2)cc2c1[nH]c1ccccc12 (centres undefined),–,"inconclusive: 4.61 µM [activator, full curve, poor fit]"
O=C(COc1ccc2ccccc2c1Br)N1CCCCC1,inactive: 2.81%,–
CCOC(=O)C1=C(C)N(C[C@@H]2CC[C@@H](Cc3ccc(-c4ccccc4)cc3)O2)C(=O)NC1c1ccc(-c2ccccc2)cc1 (some centres undefined),–,"inconclusive: 18.4 µM [activator, partial curve, poor fit]"
CCNc1nc(NC(C)CC)nc(Oc2ccc(=O)[nH]n2)n1 (centres undefined),–,"inconclusive: 18.4 µM [activator, single point]"
CCCC(NC(=S)NCC1CCCO1)C12CC3CC(CC(C3)C1)C2 (centres undefined),inactive: 28.4%,–
C=CCOc1cccc(CNCc2ccncc2)c1,–,"inconclusive: 11.6 µM [activator, single point]"
CC(C)(C)NCC(O)COc1ccccc1C1CCCC1 (centres undefined),–,"inconclusive: 3.55 µM [activator, partial curve]"
COc1ccc(NC(=S)N2CCN(Cc3ccco3)CC2)c(OC)c1,–,"inconclusive: 0.0046 µM [activator, full curve, poor fit]"
O=C(COC(=O)c1cc2c(s1)CCC2)Nc1ccc(F)cc1,–,"inconclusive: 0.058 µM [activator, full curve, poor fit]"

# Arranged by SMILES length (high to low): 12 of the compounds above.
SMILES,re-replication activation,Potency
CCOC(=O)C1=C(C)N(C[C@@H]2CC[C@@H](Cc3ccc(-c4ccccc4)cc3)O2)C(=O)NC1c1ccc(-c2ccccc2)cc1 (some centres undefined),–,"inconclusive: 18.4 µM [activator, partial curve, poor fit]"
CCOc1ccc(/C=N/NC(=O)Cc2ccccc2)cc1CN1CC2CC(C1)c1cccc(=O)n1C2 (centres undefined),–,"inconclusive: 3.26 µM [activator, single point]"
CCN(CC)S(=O)(=O)c1cc(NC(=O)Cc2n[nH]c(=O)c3ccccc23)ccc1C,inactive: 1.83%,–
Cc1ccccc1-c1nc(C(=O)NCC2CCCO2)cc2c1[nH]c1ccccc12 (centres undefined),–,"inconclusive: 4.61 µM [activator, full curve, poor fit]"
O=C(COc1ccccc1-c1ccccc1)N/N=C/c1ccc2ccccc2c1,–,active: 1.3 µM
CCCC(NC(=S)NCC1CCCO1)C12CC3CC(CC(C3)C1)C2 (centres undefined),inactive: 28.4%,–
COc1cc(N)c(Cc2nccc3cc(OC)c(OC)cc23)cc1OC,inactive: 7.07%,–
Cc1ccc(C)c(NC(=O)CSc2nnc(C)c(=O)n2N)c1,–,"inconclusive: 2.91 µM [activator, partial curve, poor fit]"
CCC(C)Oc1nc2c(c(=O)n(C)c(=O)n2C)n1C (centres undefined),inactive: -6.44%,–
COc1cccc2c(=O)c(C(=O)O)c[nH]c12,–,"inconclusive: 29.1 µM [activator, single point]"
C=CCOc1cccc(CNCc2ccncc2)c1,–,"inconclusive: 11.6 µM [activator, single point]"
C1=CCN(Cc2ccccc2)C1,–,"inconclusive: 0.13 µM [activator, single point]"

# The listing continues:

SMILES,re-replication activation,Potency
CC(NC(=O)CN1C(=O)NC2(CCc3ccccc32)C1=O)c1ccc2c(c1)OCCO2 (centres undefined),inactive: -12.3%,–
Cn1cc(Br)c(C(=O)NNC(=O)Nc2ccccc2C(F)(F)F)n1,–,"inconclusive: 0.651 µM [activator, single point]"
Cc1ccccc1NS(=O)(=O)c1ccc(N2CCCC2=O)cc1,–,active: 3.66 µM
CCCNC(=O)N1CCN(c2nc(C(C)C)c3c(c2C#N)CC(C)(C)OC3)CC1,–,"inconclusive: 4.11 µM [activator, partial curve, poor fit]"
Cc1ccc(Sc2ncccc2COC(=O)Nc2c(C)cccc2C)cc1,–,"inconclusive: 29.1 µM [activator, single point]"
O=C(NNS(=O)(=O)c1ccc(Cl)cc1Cl)c1cc2ncc(C(F)(F)F)cc2s1,–,"inconclusive: 29.1 µM [activator, single point]"
COc1cccc(C(=O)c2cn(CC(=O)NCc3ccco3)c3nc(C)ccc3c2=O)c1,inactive: 1.94%,–
C=CCSc1nnc(CSc2nc3sc4c(c3c(=O)[nH]2)CCCC4)n1-c1ccccc1,–,"inconclusive: 18.4 µM [activator, single point]"
Cc1sc2ncnc(N3CCC(C(=O)NNC(=O)COc4ccc(Br)cc4)CC3)c2c1C,–,"inconclusive: 29.1 µM [activator, single point]"
c1ccc(COc2ncnc3c2ncn3CCCNCc2ccc3c(c2)OCO3)cc1,–,"inconclusive: 1.16 µM [activator, single point]"
O=C(COC(=O)c1ccco1)c1ccc(Cl)cc1,–,"inconclusive: 32.6 µM [activator, single point]"
O=C(NN1CCOCC1)c1ccc(Cl)c(Cl)c1,inactive: -4.61%,–
COc1ccc(/C=N/Nc2cc(C)nc(-n3nc(C)cc3C)n2)c(OC)c1,–,"inconclusive: 29.1 µM [activator, single point]"
O=C(N/N=C/c1ccncc1)c1ccccn1,inactive: -7.19%,–
c1ccc(C[C@H]2CNCCN2CC2(c3ccccc3)CC2)cc1,inactive: -4.15%,–
O=[N+]([O-])c1ccc(/C=N\NS(=O)(=O)c2ccc(F)cc2)o1,–,"inconclusive: 23.1 µM [activator, single point]"
CCOC(=O)c1c(NC(=O)COc2ccccc2OCC)sc2c1CC(C)(C)NC2(C)C,–,"inconclusive: 18.4 µM [activator, single point]"
CCCN(CCC)CCNS(=O)(=O)c1ccc2c(c1)CCN2C(=O)C1CCC1,–,active: 11.6 µM
CC(C)CN1CCC(Oc2cccc(C(=O)NCCc3ccccc3)c2)CC1,inactive: 10.4%,–
CCOC(=O)C1=C(CS(=O)(=O)c2ccc(F)cc2)NC(=O)NC1c1cc(OC)c(O)c(OC)c1 (centres undefined),–,"inconclusive: 7.31 µM [activator, partial curve, poor fit]"
COc1ccc(CNC(=O)CN2C(=O)NC3(CCCc4sccc43)C2=O)cc1 (centres undefined),–,"inconclusive: 6.51 µM [activator, single point]"
CCCCNC(=O)CCC(=O)Nc1ccc2nc(N3CCC(C)CC3)cc(C)c2c1,–,"inconclusive: 0.366 µM [activator, full curve, poor fit]"
